Data as given in PubChem BioAssay AID1259308 (NCATS, 2017)
The whole screen tested about 59,000 reagents; shown is a part drawn at random. Of all reagents, about 1,510 (2.6%) were called active. 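Calls use total luciferase alone and ignore viability, so some active siRNAs may act by altering cell number.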 Reagents against one gene are numbered here. Not all columns of the deposit are shown.

- Assay: 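Candidate targets for better recombinant protein yield in mammalian cells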 (primary screen)
- System: human HEK293 embryonic kidney cells stably expressing firefly luciferase (HEK-CMV-Luc2-Hygro)
- Reagents: single siRNA against human genes, 0.8 pmol siRNA per well
- Timing: 72 h
- Measured: 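Reporter luminescence and viable-cell signal on separate replicate plates, given as percent of non-targeting control and median/MAD z-scores, plus per-cell luciferase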
- Scale: total luciferase, z-score: higher = more reporter protein produced
- Rule for the call: 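An siRNA counts as active if its total luciferase robust z-score exceeds 3; genes with two or more such siRNAs out of three were retested with fresh siRNAs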
- Calls: active = raised luciferase; inactive = no rise

total luciferase, z-score, by target gene and reagent
PLEKHJ1: #1 -0.491 inactive; #2 2.39 inactive; #3 0.529 inactive
EGR1: #1 0.764 inactive; #2 2.58 inactive; #3 -0.171 inactive
EMID1: #1 0.0642 inactive; #2 -0.0926 inactive; #3 0.369 inactive
FXYD1: #1 2.97 inactive; #2 0.916 inactive; #3 -1.25 inactive
RIMS2: #1 -0.466 inactive; #2 1.71 inactive; #3 0.228 inactive
LOC729040 (retired record): #1 -0.0232 inactive; #2 -0.708 inactive; #3 -1.05 inactive
SRXN1: #1 -0.482 inactive; #2 -2.02 inactive; #3 1.38 inactive
MCU: #1 0.425 inactive; #2 0.862 inactive; #3 -0.337 inactive
ST3GAL4: #1 -0.836 inactive; #2 0.228 inactive; #3 -0.122 inactive
TMEM35A: #1 0.0693 inactive; #2 1.36 inactive; #3 0.437 inactive
LINC00239: #1 3.06 active; #2 -1.49 inactive; #3 -0.366 inactive
FOXA3: #1 0.499 inactive; #2 0.954 inactive; #3 -0.781 inactive
LANCL2: #1 0.952 inactive; #2 1.29 inactive; #3 0.498 inactive
VMO1: #1 2.82 inactive; #2 0.584 inactive; #3 3.13 active
TSLIG1: #1 -0.27 inactive; #2 0.0588 inactive; #3 -0.691 inactive
ATP6V0D2: #1 1.42 inactive; #2 0.0869 inactive; #3 0.676 inactive
LRIF1: #1 -2.22 inactive; #2 1.18 inactive; #3 1.88 inactive
HNRNPH2: #1 0.86 inactive; #2 3.25 active; #3 -0.0592 inactive
DSTN: #1 -1.24 inactive; #2 0.797 inactive; #3 3.81 active
HTR6: #1 0.68 inactive; #2 1.57 inactive; #3 0.267 inactive
VSTM2B: #1 0.842 inactive; #2 -1.34 inactive; #3 1.81 inactive
KLHL20: #1 0.154 inactive; #2 -0.714 inactive; #3 -1.26 inactive
VPS39: #1 0.995 inactive; #2 -0.212 inactive; #3 1.02 inactive
C5AR1: #1 -0.161 inactive; #2 0.471 inactive; #3 -1.79 inactive
CGRRF1: #1 0.265 inactive; #2 -2.49 inactive; #3 0.0352 inactive
